# Some results were stated once for a whole list of compounds, not compound by compound.
# System: panel of mycobacteria
# Experiment: MIC against a panel of mycobacteria (summary ranges)
# Type: cell-based
# Conditions: M. avium strains of Table 3
row,SMILES,MIC range against M. avium [µg/mL]
1,"Cc1cc(C)c2cc(C(=O)NC3CCCCCC3)[nH]c2c1 [Compound 26, N-cycloheptyl-4,6-dimethyl-1H-indole-2-carboxamide]",2 to 4
2,"Cc1cc(C)c2cc(C(=O)N[C@@H]3C[C@@H]4C[C@H]([C@H]3C)C4(C)C)[nH]c2c1 [Compound 31, N-((1R,2R,3R,5S)-2,6,6-trimethylbicyclo[3.1.1]heptan-3-yl)-4,6-dimethyl-1H-indole-2-carboxamide]",2 to 4

# Reference: patent US10383848B2, “Indole-based therapeutics” (Creighton University, priority 2016, dated 2019)
